Source: PubChem BioAssay AID1259308 (NCATS, 2017)
Shown is one part, drawn at random, of about 59,000 reagents. Over the whole deposit, about 1,510 (2.6%) are marked active. 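Calls use total luciferase alone and ignore viability, so some active siRNAs may act by altering cell number.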 Reagents against one gene are numbered here. Further read-outs or replicates are left out here.

Test: 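Candidate targets for better recombinant protein yield in mammalian cells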 (primary screen)
System: human HEK293 embryonic kidney cells stably expressing firefly luciferase (HEK-CMV-Luc2-Hygro)
Reagents: single siRNA against human genes, 0.8 pmol siRNA per well
Timing: 72 h
Detection: 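Luciferase light (ONE-Glo) measured on one replicate plate set and viability (CellTiter-Glo) on the other, scaled to a negative control siRNA, with robust z-scores and luciferase per cell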
Scale: total luciferase, z-score: higher = more reporter protein produced
Hit rule: 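An siRNA counts as active if its total luciferase robust z-score exceeds 3; genes with two or more such siRNAs out of three were retested with fresh siRNAs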
Calls: active = raised luciferase; inactive = no rise

total luciferase, z-score, by target and reagent
FIGN: #1 0.166 inactive; #2 -1.97 inactive; #3 0.0649 inactive
PIGR: #1 0.693 inactive; #2 0.315 inactive; #3 0.516 inactive
GUCY2C: #1 -2.66 inactive; #2 -0.659 inactive; #3 -0.0657 inactive
PAX8: #1 -0.425 inactive; #2 0.259 inactive; #3 -0.572 inactive
ZNHIT1: #1 1.16 inactive; #2 0.479 inactive; #3 -0.695 inactive
VPS36: #1 -2.84 inactive; #2 1.28 inactive; #3 0.438 inactive
ZW10: #1 0.865 inactive; #2 0.115 inactive; #3 0.145 inactive

Records listed so far whose target name starts with F or f (3):
total luciferase, z-score, by target and reagent
FIGN: #1 0.166 inactive; #2 -1.97 inactive; #3 0.0649 inactive

The list goes on:
total luciferase, z-score, by target and reagent
LAMA5: #1 -1.02 inactive; #2 -1.35 inactive; #3 0.67 inactive
XRCC1: #1 -0.477 inactive; #2 0.816 inactive; #3 0.314 inactive
EPPIN: #1 0.802 inactive; #2 0.0351 inactive; #3 -1.08 inactive
TXN: #1 -1.12 inactive; #2 -2.54 inactive; #3 0.186 inactive
SDK2: #1 0.776 inactive; #2 4.89 active; #3 -0.585 inactive
LDAF1: #1 0.771 inactive; #2 -1.2 inactive; #3 0.0427 inactive
TRMT1: #1 0.292 inactive; #2 0.135 inactive; #3 0.45 inactive
MOGAT2: #1 -1.58 inactive; #2 -0.552 inactive; #3 -0.753 inactive
LOC728114 (retired record): #1 0.274 inactive; #2 -0.566 inactive; #3 0.127 inactive
ZNF467: #1 0.604 inactive; #2 -1.23 inactive; #3 2.36 inactive
PCDHA6: #1 0.502 inactive; #2 -0.098 inactive; #3 -1.88 inactive
SOD2: #1 0.0665 inactive; #2 -0.317 inactive; #3 -0.395 inactive
